# Assay results as given in PMC12005498.
# These are yes or no findings as the source states them, for the method shown. In cells and extracts the contact can be indirect. These calls come from enrichment with a bait or labelling near it, and not all partners need be listed.
# B1: RC3H1, human (protein, UniProt Q5TC82 1-1133)
# chain: MPVQAPQWTDFLSCPICTQTFDETIRKPISLGCGHTVCKMCLNKLHRKACPFDQTTINTDIELLPVNSALLQLVGAQVPEQQPITLCSGVEDTKHYEEAKKCVEELALYLKPLSSARGVGLNSTTQSVLSRPMQRKLVTLVHCQLVEEEGRIRAMRAARSLGERTVTELILQHQNPQQLSSNLWAAVRARGCQFLGPAMQEEALKLVLLALEDGSALSRKVLVLFVVQRLEPRFPQASKTSIGHVVQLLYRASCFKVTKRDEDSSLMQLKEEFRTYEALRREHDSQIVQIAMEAGLRIAPDQWSSLLYGDQSHKSHMQSIIDKLQTPASFAQSVQELTIALQRTGDPANLNRLRPHLELLANIDPSPDAPPPTWEQLENGLVAVRTVVHGLVDYIQNHSKKGADQQQPPQHSKYKTYMCRDMKQRGGCPRGASCTFAHSQEELEKFRKMNKRLVPRRPLSASLGQLNEVGLPSAAILPDEGAVDLPSRKPPALPNGIVSTGNTVTQLIPRGTDPSYDSSLKPGKIDHLSSSAPGSPPDLLESVPKSISALPVNPHSIPPRGPADLPPMPVTKPLQMVPRGSQLYPAQQTDVYYQDPRGAAPPFEPAPYQQGMYYTPPPQCVSRFVRPPPSAPEPAPPYLDHYPPYLQERVVNSQYGTQPQQYPPIYPSHYDGRRVYPAPSYTREEIFRESPIPIEIPPAAVPSYVPESRERYQQIESYYPVAPHPTQIRPSYLREPPYSRLPPPPQPHPSLDELHRRRKEIMAQLEERKVISPPPFAPSPTLPPTFHPEEFLDEDLKVAGKYKGNDYSQYSPWSCDTIGSYIGTKDAKPKDVVAAGSVEMMNVESKGMRDQRLDLQRRAAETSDDDLIPFGDRPTVSRFGAISRTSKTIYQGAGPMQAMAPQGAPTKSINISDYSPYGTHGGWGASPYSPHQNIPSQGHFSERERISMSEVASHGKPLPSAEREQLRLELQQLNHQISQQTQLRGLEAVSNRLVLQREANTLAGQSQPPPPPPPKWPGMISSEQLSLELHQVEREIGKRTRELSMENQCSLDMKSKLNTSKQAENGQPEPQNKVPAEDLTLTFSDVPNGSALTQENISLLSNKTSSLNLSEDPEGGGDNNDSQRSGVTPSSAP
# B2: eIF2A (protein, UniProt Q9BY44 1-585)
# chain: MAPSTPLLTVRGSEGLYMVNGPPHFTESTVFPRESGKNCKVCIFSKDGTLFAWGNGEKVNIISVTNKGLLHSFDLLKAVCLEFSPKNTVLATWQPYTTSKDGTAGIPNLQLYDVKTGTCLKSFIQKKMQNWCPSWSEDETLCARNVNNEVHFFENNNFNTIANKLHLQKINDFVLSPGPQPYKVAVYVPGSKGAPSFVRLYQYPNFAGPHAALANKSFFKADKVTMLWNKKATAVLVIASTDVDKTGASYYGEQTLHYIATNGESAVVQLPKNGPIYDVVWNSSSTEFCAVYGFMPAKATIFNLKCDPVFDFGTGPRNAAYYSPHGHILVLAGFGNLRGQMEVWDVKNYKLISKPVASDSTYFAWCPDGEHILTATCAPRLRVNNGYKIWHYTGSILHKYDVPSNAELWQVSWQPFLDGIFPAKTITYQAVPSEVPNEEPKVATAYRPPALRNKPITNSKLHEEEPPQNMKPQSGNDKPLSKTALKNQRKHEAKKAAKQEARSDKSPDLAPTPAPQSTPRNTVSQSISGDPEIDKKIKNLKKKLKAIEQLKEQAATGKQLEKNQLEKIQKETALLQELEDLELGI
# B3: ATXN2L, human (protein, UniProt Q8WWM7 1-1075)
# chain: MLKPQPLQQPSQPQQPPPTQQAVARRPPGGTSPPNGGLPGPLATSAAPPGPPAAASPCLGPVAAAGSGLRRGAEGILAPQPPPPQQHQERPGAAAIGSARGQSTGKGPPQSPVFEGVYNNSRMLHFLTAVVGSTCDVKVKNGTTYEGIFKTLSSKFELAVDAVHRKASEPAGGPRREDIVDTMVFKPSDVMLVHFRNVDFNYATKDKFTDSAIAMNSKVNGEHKEKVLQRWEGGDSNSDDYDLESDMSNGWDPNEMFKFNEENYGVKTTYDSSLSSYTVPLEKDNSEEFRQRELRAAQLAREIESSPQYRLRIAMENDDGRTEEEKHSAVQRQGSGRESPSLASREGKYIPLPQRVREGPRGGVRCSSSRGGRPGLSSLPPRGPHHLDNSSPGPGSEARGINGGPSRMSPKAQRPLRGAKTLSSPSNRPSGETSVPPPPAVGRMYPPRSPKSAAPAPISASCPEPPIGSAVPTSSASIPVTSSVSDPGVGSISPASPKISLAPTDVKELSTKEPGRTLEPQELARIAGKVPGLQNEQKRFQLEELRKFGAQFKLQPSSSPENSLDPFPPRILKEEPKGKEKEVDGLLTSEPMGSPVSSKTESVSDKEDKPPLAPSGGTEGPEQPPPPCPSQTGSPPVGLIKGEDKDEGPVAEQVKKSTLNPNAKEFNPTKPLLSVNKSTSTPTSPGPRTHSTPSIPVLTAGQSGLYSPQYISYIPQIHMGPAVQAPQMYPYPVSNSVPGQQGKYRGAKGSLPPQRSDQHQPASAPPMMQAAAAAGPPLVAATPYSSYIPYNPQQFPGQPAMMQPMAHYPSQPVFAPMLQSNPRMLTSGSHPQAIVSSSTPQYPSAEQPTPQALYATVHQSYPHHATQLHAHQPQPATTPTGSQPQSQHAAPSPVQHQAGQAPHLGSGQPQQNLYHPGALTGTPPSLPPGPSAQSPQSSFPQPAAVYAIHHQQLPHGFTNMAHVTQAHVQTGITAAPPPHPGAPHPPQVMLLHPPQSHGGPPQGAVPQSGVPALSASTPSPYPYIGHPQGEQPGQAPGFPGGADDRIREFSLAGGIWHGRAEGLQVGQDARVLGGE
# Biological target: Semliki Forest virus (SFV) nsP3 fused with the biotin ligase miniTurbo (nsP3-mTB) (Semliki Forest virus)
# Experiment: proximity labelling
row,Binder,binding
1,B1,binds
2,B2,binds
3,B3,binds
